Assay results as given in publication PMC4964934.
These are yes or no findings as the source states them, for the method shown. Binding seen in cells or lysates may run through a third protein. A yes stands for co-enrichment or nearness to the bait. Other partners may have been found. Where a sequence is shown, tags or fusion partners need not be part of it.

Protein sequences, listed by entry. Tags and fused reporters are not part of them.
UniProt O95243: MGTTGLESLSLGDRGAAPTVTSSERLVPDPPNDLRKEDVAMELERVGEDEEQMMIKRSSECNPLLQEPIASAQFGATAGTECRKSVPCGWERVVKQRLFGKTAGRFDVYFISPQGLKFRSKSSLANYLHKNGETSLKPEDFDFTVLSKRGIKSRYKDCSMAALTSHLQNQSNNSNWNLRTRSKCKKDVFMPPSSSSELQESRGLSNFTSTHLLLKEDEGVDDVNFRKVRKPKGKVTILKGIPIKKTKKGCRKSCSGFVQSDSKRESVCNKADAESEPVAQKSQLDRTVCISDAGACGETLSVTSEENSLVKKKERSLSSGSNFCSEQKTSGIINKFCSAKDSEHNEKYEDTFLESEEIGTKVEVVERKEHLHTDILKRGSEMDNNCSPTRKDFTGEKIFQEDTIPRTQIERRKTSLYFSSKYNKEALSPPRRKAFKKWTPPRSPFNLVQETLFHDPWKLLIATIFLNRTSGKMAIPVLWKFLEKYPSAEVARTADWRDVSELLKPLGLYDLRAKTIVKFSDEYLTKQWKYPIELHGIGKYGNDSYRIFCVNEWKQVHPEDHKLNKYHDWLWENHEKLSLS

Biological target: FLAG-hMBD4 (SF-TAP-hMBD4), human full-length MBD4 (human) (UniProt O95243)
Assay: affinity purification with mass spectrometry; FLAG-MBD4 purified on anti-FLAG beads from MNase-digested nuclear extract of transfected 293T cells; SDS-PAGE, excised bands, Mascot search; control: empty vector

binding: binds
B1: UHRF1 (Ubiquitin-like, with PHD and RING finger domains 1), found by mass spectrometry in the FLAG-MBD4 purification (protein, UniProt Q96T88 1-793)
chain: MWIQVRTMDGRQTHTVDSLSRLTKVEELRRKIQELFHVEPGLQRLFYRGKQMEDGHTLFDYEVRLNDTIQLLVRQSLVLPHSTKERDSELSDTDSGCCLGQSESDKSSTHGEAAAETDSRPADEDMWDETELGLYKVNEYVDARDTNMGAWFEAQVVRVTRKAPSRDEPCSSTSRPALEEDVIYHVKYDDYPENGVVQMNSRDVRARARTIIKWQDLEVGQVVMLNYNPDNPKERGFWYDAEISRKRETRTARELYANVVLGDDSLNDCRIIFVDEVFKIERPGEGSPMVDNPMRRKSGPSCKHCKDDVNRLCRVCACHLCGGRQDPDKQLMCDECDMAFHIYCLDPPLSSVPSEDEWYCPECRNDASEVVLAGERLRESKKKAKMASATSSSQRDWGKGMACVGRTKECTIVPSNHYGPIPGIPVGTMWRFRVQVSESGVHRPHVAGIHGRSNDGAYSLVLAGGYEDDVDHGNFFTYTGSGGRDLSGNKRTAEQSCDQKLTNTNRALALNCFAPINDQEGAEAKDWRSGKPVRVVRNVKGGKNSKYAPAEGNRYDGIYKVVKYWPEKGKSGFLVWRYLLRRDDDEPGPWTKEGKDRIKKLGLTMQYPEGYLEALANREREKENSKREEEEQQEGGFASPRTGKGKWKRKSAGGGPSRAGSPRRTSKKTKVEPYSLTAQQSSLIREDKSNAKLWNEVLASLKDRPASGSPFQLFLSKVEETFQCICCQELVFRPITTVCQHNVCKDCLDRSFRAQVFSCPACRYDLGRSYAMQVNQPLQTVLNQLFPGYGNGR
